Source: article PMC7560216
No constants are given. Whether binding was seen depends on the method and setting. In cells and extracts the contact can be indirect. Some entries that bind do so weakly or less than the wild type.

Amino acid sequences for entries named in this document (tags omitted). A change or cut given only in a name is not applied to a line headed by its entry. Chains listed by the source or under a name are the forms on record and can include a tag or linker.
UniProt P38959: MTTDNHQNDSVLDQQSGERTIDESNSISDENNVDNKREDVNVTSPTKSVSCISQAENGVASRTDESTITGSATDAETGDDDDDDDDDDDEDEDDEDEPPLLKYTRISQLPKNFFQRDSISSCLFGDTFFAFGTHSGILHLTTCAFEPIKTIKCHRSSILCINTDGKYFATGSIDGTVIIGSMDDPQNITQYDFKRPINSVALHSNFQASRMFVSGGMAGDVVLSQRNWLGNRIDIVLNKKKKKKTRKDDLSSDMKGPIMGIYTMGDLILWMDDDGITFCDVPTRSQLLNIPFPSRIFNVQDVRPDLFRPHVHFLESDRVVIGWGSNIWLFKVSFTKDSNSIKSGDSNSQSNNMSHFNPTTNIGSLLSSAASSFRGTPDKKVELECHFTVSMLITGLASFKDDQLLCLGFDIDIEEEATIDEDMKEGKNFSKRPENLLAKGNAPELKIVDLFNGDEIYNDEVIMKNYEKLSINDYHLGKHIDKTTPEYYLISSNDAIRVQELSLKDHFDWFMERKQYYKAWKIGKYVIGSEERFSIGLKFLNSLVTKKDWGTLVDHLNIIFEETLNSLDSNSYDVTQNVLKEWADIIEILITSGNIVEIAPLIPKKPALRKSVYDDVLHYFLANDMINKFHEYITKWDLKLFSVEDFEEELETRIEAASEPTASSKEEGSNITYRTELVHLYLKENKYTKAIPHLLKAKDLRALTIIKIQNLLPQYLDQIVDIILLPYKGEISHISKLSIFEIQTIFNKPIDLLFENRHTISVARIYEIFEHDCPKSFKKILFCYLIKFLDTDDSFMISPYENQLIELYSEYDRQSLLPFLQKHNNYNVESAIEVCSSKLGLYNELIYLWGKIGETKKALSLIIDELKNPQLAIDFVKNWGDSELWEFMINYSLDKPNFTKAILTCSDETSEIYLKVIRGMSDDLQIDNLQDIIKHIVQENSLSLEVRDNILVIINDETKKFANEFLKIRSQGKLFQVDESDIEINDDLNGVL
Vps41(S-D)-GFP-Fis1 (P38959, form named): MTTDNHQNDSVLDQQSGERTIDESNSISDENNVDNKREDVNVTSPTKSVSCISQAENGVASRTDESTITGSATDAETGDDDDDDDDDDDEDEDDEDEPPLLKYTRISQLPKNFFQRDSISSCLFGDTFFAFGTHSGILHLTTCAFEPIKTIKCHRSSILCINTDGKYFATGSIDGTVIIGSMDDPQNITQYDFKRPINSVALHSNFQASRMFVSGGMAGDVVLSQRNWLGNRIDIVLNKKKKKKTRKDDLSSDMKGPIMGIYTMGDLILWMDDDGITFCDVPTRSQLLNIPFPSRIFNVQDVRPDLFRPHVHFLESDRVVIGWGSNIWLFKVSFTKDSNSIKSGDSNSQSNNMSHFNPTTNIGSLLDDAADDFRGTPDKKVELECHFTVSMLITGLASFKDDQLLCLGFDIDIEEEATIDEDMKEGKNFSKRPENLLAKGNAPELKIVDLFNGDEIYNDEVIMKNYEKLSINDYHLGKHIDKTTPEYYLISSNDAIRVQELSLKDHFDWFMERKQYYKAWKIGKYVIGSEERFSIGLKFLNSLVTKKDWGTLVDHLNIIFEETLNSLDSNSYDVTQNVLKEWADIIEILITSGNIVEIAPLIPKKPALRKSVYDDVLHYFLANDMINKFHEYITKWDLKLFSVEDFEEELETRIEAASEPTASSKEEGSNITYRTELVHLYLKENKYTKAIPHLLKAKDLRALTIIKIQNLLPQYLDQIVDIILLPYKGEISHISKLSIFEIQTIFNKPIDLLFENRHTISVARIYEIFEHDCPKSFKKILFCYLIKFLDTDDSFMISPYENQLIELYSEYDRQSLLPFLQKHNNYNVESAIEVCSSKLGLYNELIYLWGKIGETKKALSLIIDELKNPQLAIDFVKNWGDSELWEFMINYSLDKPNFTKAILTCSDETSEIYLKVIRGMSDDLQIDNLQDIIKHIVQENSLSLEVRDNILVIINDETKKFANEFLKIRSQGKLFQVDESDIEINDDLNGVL

Biological target: Vps41(S-D)-GFP-Fis1 (S. cerevisiae) (UniProt P38959)
Experiment: co-sedimentation; mitochondria purified from yeast grown in YPG by differential centrifugation and a sucrose gradient; crude and pure fractions analysed by Western blot

binding: binds
B1: Apl5 (protein, UniProt Q08951 1-932)
chain: MTSLYAPGAEDIRQRLRPFGFFFEKSLKDLIKGIRSHNETPEKLDQFFKQVLSECREEVNSPDLNSKTNAVLKLTYLEMYGFDMAWCNFHILEVMSSNKLQQKRVGYLAASQSFYKDSDILMLATNLLKKDLKYDGNNDVVKVGIALSGLSTIITPSLARDIADDLFTMLNSTRPYIRKKAITALFKVFLQYPEALRDNFDKFVSKLDDDDISVVSAAVSVICELSKKNPQPFIQLSPLLYEILVTIDNNWIIIRLLKLFTNLSQVEPKLRAKLLPKILELMESTVATSVIYESVNCIVKGNMLEEDDFETAMACLERLHTFCDSQDPNLRYISCILFYKIGKINTDFISRFDQLIIRLLSDVDVSIRSKAIELVEGIVDEDNLKAIVQTLMKQFVDEDVVILQTGSIVYEKSKRIPIIIPENYKIKMVNVIISICSADNYSSVNDFEWYNAVIMDLAMLCQDISDKSLGSKIGEQFRNLMIKVPSMREVTIANIIKLISNDNINKQLPTVLRECIWCLGEFSTLVENGNDLIKIMTENISYYSHSVQEVLILALVKVFSNWCNNFQEDKRFEIKMVLKELIEFFENLSYSSTFEVQERSVEVLEFLRLSLEALEEDTEGLPMLLSEVLPSFFNAYELAPIARGTQLKLAVDENLDLETPFLTKEAADELLDEQKSDAISDLMSDISMDEQVELKFVDDSDTSYEEKEKLDDFENPFEIEREKERMSNPYYLGEEDEERTKNSKDLLDLNEEESSDKKPETIRLNRTDNSLNSLSLSTTEISRKKKKGKKKNRVQVLSDEPVIEAAPKRKDAFQKPHDNHSTQNPLKKDKINLRMHSQLENFDFSNFGQSSNAGRGSQEEGNLRKEDELELSRLEANLIVKDEKDNLSDTEEVIVIKKKKKGKKSKSKNKLKTKAKNSPEPNEFLRDQSTDI
